± gives the standard deviation. This is one part of the list. Many of these values have a large error.
These sequences were tested on EfPiwi piRISC loaded with L1MC piRNA (26 nt) (assay: pre-steady-state target cleavage rate (min^-1); guide: L1MC piRNA 5'p-UAACUAAAUACUAUGCAAGCUGUAGG; MIWI and MILI are mouse PIWI proteins and EfPiwi is from a freshwater sponge; tags in brackets are library labels; higher = faster piRNA-guided slicing of the target). Details: auxiliary factor: 500 nM Ephydatia muelleri Gtsf1.
Summary of the method: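 For Cleave-'n-Seq, a transcribed, DNA-blocked target RNA library […] met 1 nM active affinity-purified piRISC with one synthetic guide at 33 °C for 0–8 or 0–960 min in HEPES–potassium acetate buffer, with or without 500 nM GTSF1 partner protein. Uncleaved targets were sequenced and normalised to depth and weakly complementary targets, with three trials pooled and k3 capped at 0.0001 min^-1. A burst-and-steady-state fit supplied the pre-steady-state cleavage rate.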

Sequence | pre-steady-state target cleavage rate
UCCUGGUACAGCUUGCAUAGUUUUUUGUUA | 0.00135 ± 0.0065
UCCUGGAACAGCUUGCAUAGUAUUUAGCUUA | 0.00529 ± 0.0018
UCCUGGAACAGCUUCAUAGUAUUUAGUUA | 0.0107 ± 0.0034
UCCUGGAUGUGCUAGCAUAGUAUUUAGUUA | 0.00573 ± 0.0027
UCCUCCUACAGGUUGCAUACUAUUUAGUUA | 0.00612 ± 0.0018
UCCUCCUACAGCUUGCAUAGUAUUAAGUUA | 0.00589 ± 0.0029
UCCUGGAUGUGUCUUGCAUAGUAUUUAGUUA | 0.113 ± 0.038
UCCUGGAUCAGCUAGCAUAGUAUUUAGUUA | 0.0313 ± 0.009
UCCUGGAUCAGCUUGCAUAGUUUUAAGUUA | 0.00285 ± 0.0028
UCCUGGAUGAGCUUGCACAGUAUUUAGUUA | 0.0152 ± 0.0046
UCCUGCUACAGGUUGCAUAGUAUUUAGAUA | 0.002 ± 0.0022
UCCUGGAACAGCUUGCAAAGUUUUUAGUUA | 0.00127 ± 0.0033
UCCUGGAACACUUGCAUAGUAUUUAGUUA | 0.0107 ± 0.0034
UCCUGGAUGUCGAACGUUAGAUUUAGUUA | < 0.0001
UCCUGCUACAGCUUGCAUAGUAUUUACGUUA | 0.00429 ± 0.002
UCCUGGAUCAGCUUGCAUAGUAUAAAGUUA | 0.00752 ± 0.0027

A portion from the list above, for reference:
Sequence | pre-steady-state target cleavage rate
UCCUGGAUCAGCUAGCAUAGUAUUUAGUUA | 0.0313 ± 0.009
UCCUGGAUCAGCUUGCAUAGUUUUAAGUUA | 0.00285 ± 0.0028

Carrying on.

Sequence | pre-steady-state target cleavage rate
UCCUGGAACAGCUUGCAUUGUUUUUAGUUA | 0.000813 ± 0.0028
UCCUGCUACAGCAUGCAUAGUUUUUAGUUA | 0.00363 ± 0.0018
UCCUGGAAGUGCUUGCAUAGUAUUUAGUUA | 0.00537 ± 0.0019
UCCUGGAUCACCUUGCAUAGUAUUAAGUUA | 0.00509 ± 0.0039
UCCUGCUACAGCUUGGAUACUAUUUAGUUA | 0.00633 ± 0.0024
UCCUGGAACAGCUUGCAUAGUAUUUAGUGA | 0.00437 ± 0.002
UCCUGCUACAGCUUGCAAAGUAUAUAGUUA | 0.00379 ± 0.0026
UCCUGCUACAGCUUGGAUAGUAUUAAGUUA | 0.0066 ± 0.0018
UCCUGCAACAGCUUGCAUAGUUUUUAGUUA | 0.00727 ± 0.0019
UCCUCCUACUGCUUGCUUAGUAUUUAGUUA | 0.0504 ± 0.015
UCCUGGAUGUCGAACGUAAGUAUUUAGUGA | < 0.0001
UCCUCCUACAGGUUGCUUAGUAUUUAGUUA | 0.0231 ± 0.0065
UCCUGGAUGUCGAACGUUAGUAUUUAGUAUA | 0.000133 ± 0.024
UCCUGGAUGUCCUUGCAUAGUAUUUAUUUA | 0.00464 ± 0.0036
UCCUGGAUGAGCUUGCAUCGUAUUUAGUUA | 0.00975 ± 0.0029

Same assay, conditions: auxiliary factor: none (no Gtsf1)

Sequence | pre-steady-state target cleavage rate
UCCUGGUAGAGCUUGCAUAGUUUUUAGUUA | 0.00122 ± 0.0086
UCCUGCUACAGCUUGCAGAGUAUUUAGUUA | 0.000916 ± 0.006
UCCUGGUACAGCUUGUAUAGUAUUUAGUUA | 0.000746 ± 0.017
UCCUGCUACAGCUUGGAUAGUAUUUAGUAA | 0.000363 ± 0.012
UCCUGGAUGUCGAACGUAUGAAUUUAGAUA | < 0.0001
UCCUGGAUCAGGUUGCAUAGUAUUUAGUUA | 0.00103 ± 0.01
UCCUGGAUGAGCUUGCAUAGUAUUUAGUUU [g2:g21:cont:t1U] | 0.00181 ± 0.0086
UCCUGGAUGUGCUUGCAUAGUAUAAAGUUA | 0.00115 ± 0.0092
UCCUGGAACAGCUUGCUUAGUAUUUUGUUA | 0.000736 ± 0.013

Source: the supplement of paper PMC10338343
